Patent US8299267B2, “(3-hydroxy-4-amino-butan-2-yl) -3- (2-thiazol-2-yl-pyrrolidine-1-carbonyl) benzamide derivatives and related compounds as beta-secretase inhibitors for treating” (CoMentis, Inc., priority 2007, dated 2012)
The match of structure and compound is tentative.

By UniProt entry, the sequences of proteins in these tests, tags left out. Residues count along the entry.
UniProt P56817, 46-501 limits assumed: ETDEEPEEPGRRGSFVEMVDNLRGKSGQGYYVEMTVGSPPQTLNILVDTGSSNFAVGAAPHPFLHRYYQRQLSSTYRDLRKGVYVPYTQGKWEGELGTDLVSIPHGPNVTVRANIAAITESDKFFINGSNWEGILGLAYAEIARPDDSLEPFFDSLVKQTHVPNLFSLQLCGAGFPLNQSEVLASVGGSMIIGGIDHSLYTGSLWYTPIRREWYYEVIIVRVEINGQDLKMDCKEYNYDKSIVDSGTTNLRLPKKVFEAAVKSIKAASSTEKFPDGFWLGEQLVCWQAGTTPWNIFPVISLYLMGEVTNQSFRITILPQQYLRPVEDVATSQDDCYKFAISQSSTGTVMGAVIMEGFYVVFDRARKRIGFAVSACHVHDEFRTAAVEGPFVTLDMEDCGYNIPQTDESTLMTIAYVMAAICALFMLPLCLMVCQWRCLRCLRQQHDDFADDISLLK
UniProt P07339, 65-412 limits assumed: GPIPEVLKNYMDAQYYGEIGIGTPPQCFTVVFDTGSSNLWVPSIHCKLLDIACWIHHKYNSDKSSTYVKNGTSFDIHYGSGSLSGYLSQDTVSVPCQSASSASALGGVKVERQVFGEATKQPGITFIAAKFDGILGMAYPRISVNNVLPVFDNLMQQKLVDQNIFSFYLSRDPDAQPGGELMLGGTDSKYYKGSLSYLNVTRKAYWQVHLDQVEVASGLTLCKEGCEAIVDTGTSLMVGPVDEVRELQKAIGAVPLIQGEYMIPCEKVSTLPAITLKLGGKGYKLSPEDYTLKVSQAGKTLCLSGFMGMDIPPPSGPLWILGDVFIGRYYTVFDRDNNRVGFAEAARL
UniProt Q9Y5Z0, 63-518 limits assumed: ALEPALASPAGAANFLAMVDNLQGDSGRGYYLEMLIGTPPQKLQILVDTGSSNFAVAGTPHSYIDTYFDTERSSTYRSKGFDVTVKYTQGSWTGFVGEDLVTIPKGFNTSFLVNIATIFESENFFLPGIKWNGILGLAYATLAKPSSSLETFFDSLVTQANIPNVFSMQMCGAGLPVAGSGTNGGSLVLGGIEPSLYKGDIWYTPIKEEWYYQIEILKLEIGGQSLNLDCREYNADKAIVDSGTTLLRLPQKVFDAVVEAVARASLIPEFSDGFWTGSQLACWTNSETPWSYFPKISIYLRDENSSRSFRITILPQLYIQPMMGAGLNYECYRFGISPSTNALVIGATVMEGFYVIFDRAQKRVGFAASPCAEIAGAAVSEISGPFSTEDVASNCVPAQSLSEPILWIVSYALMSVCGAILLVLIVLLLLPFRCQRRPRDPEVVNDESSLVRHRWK

Tests used:
memapsin 2 = memapsin 2 (Homo sapiens, UniProt P56817); assay: Inhibition of memapsin 2 beta-secretase activity toward fluorogenic substrate FS-2; conditions: read-out: M2Ki, memapsin 2, pH 4, 37° C., 20 minutes pre-incubation
Method: Potency of compounds were determined by measurement of their inhibition of memapsin 2 activity toward a fluorescent substrate. Kinetic inhibition experiments were performed using the procedure as described in Ermolieff, et al. (Biochemistry 39:12450-12456 (2000), the teachings of which are incorporated hereby in their entirety). Briefly, assays were performed at pH 4, 37° C., by pre-incubation of memapsin 2 enzyme with compound for 20 minutes. Activity measurements were initiated by addition of a fluorogenic substrate FS-2 (Bachem Americas, Torrance, Calif.) MCA-SEVNLDAEFK-DNP (SEQ ID NO.: 2). The substrate was derived from 10 amino acids of the human amyloid precursor protein (APP), with the Swedish variant amino acids at the beta-secretase cleavage site. The terminal amino acid was modified from arginine to lysine to facilitate derivatization with a functional group for detection by autofluorescence. The amino acid sequence of the “core” peptide of the substrate is SEVNLDAEFK (SEQ ID NO.: 3). The amino terminus was derivatized with (7-methoxycoumarin-4-yl)acetyl (MCA), and the epsilon amine of the lysine side chain of the terminal residue (K in sequence SEVNLDAEFK (SEQ ID NO.: 4)) was derivatized with 2,4-dinitrophenyl (DNP).

[1] = system: Aβ production in Chinese hamster ovary cells that over-express human APP695 with the London and Swedish mutations; assay: Cellular Aβ IC50 determination (Aβ40 sandwich ELISA); conditions: Aβ40 in CHO cells over-expressing human APP695, 24 h incubation
cathepsin D = cathepsin D (Homo sapiens, UniProt P07339); assay: Inhibition of cathepsin D activity (substrate peptide ELDLAVEFWHDR, MALDI-TOF); conditions: read-out: CDKi, pH 4.1, 37 degrees C.
Method: [The procedure below names another target; the source lists this target under the same test.] (§1) A substrate peptide NH3-ELDLAVEFWHDR-CO2 (SEQ ID NO.: 1) was dissolved at 2 mg/mL in 10% glacial acetic acid and diluted into 0.009M NaOH to obtain μM concentration at pH 4.1. After equilibration at 37 degrees C., the reactions were initiated by the addition of an aliquot of memapsin 2. Aliquots were removed at time intervals, and combined with an equal volume of MALDI-TOF matrix (α-hydroxycinnamic acid in acetone, 20 mg/mL) and immediately spotted in duplicate onto a stainless-steel MALDI sample plate. MALDI-TOF mass spectrometry was performed on a PE Biosystems Voyager DE. The instrument was operated at 25,000 accelerating volts in positive mode with a 150 ns delay. Ions with a mass-to-charge ratio (m/z) were detected in the range of 650-2000 atomic mass units. Data were analyzed by the Voyager Data Explorer module to obtain ion intensity data for mass species of substrates and corresponding products in a given mixture. Relative product formation was calculated as the ratio of signal intensity of the product to the sum of signal intensities of both product and the corresponding substrate. Relative product formed per unit time was obtained from non-linear regression analysis of the data representing the initial 15% formation of product using the model: 1−e^−kT, where k was the relative hydrolytic rate constant and T was time in seconds. […]

memapsin 1 = memapsin 1 (Homo sapiens, UniProt Q9Y5Z0); assay: Inhibition of memapsin 1 beta-secretase activity (substrate peptide ELDLAVEFWHDR, MALDI-TOF); conditions: read-out: M1Ki; memapsin 1, pH 4.1, 37 degrees C.
Method: [The procedure below names another target; the source lists this target under the same test.] as §1

Compound | Ki (memapsin 2) | IC50 [1] | Ki (cathepsin D) | Ki (memapsin 1)
Cc1coc([C@H]2CCCN2C(=O)c2cccc(C(=O)N[C@@H](Cc3ccccc3)[C@H](O)CNCc3cccc(C(C)(F)F)c3)c2)n1 | < 100 nM | < 300 nM |  | 
COc1cccc(CNC[C@@H](O)[C@H](Cc2ccccc2)NC(=O)c2cccc(C(=O)N3CCC[C@@H]3c3nc(C)cs3)c2)c1 | < 100 nM | < 300 nM | 301 to 500 nM | < 300 nM
